Reference: PMC11102862

Target: T1, 3xFLAG_TEV_SBP-tagged CD2BP2 (human) (UniProt O95400)
T1 sequence: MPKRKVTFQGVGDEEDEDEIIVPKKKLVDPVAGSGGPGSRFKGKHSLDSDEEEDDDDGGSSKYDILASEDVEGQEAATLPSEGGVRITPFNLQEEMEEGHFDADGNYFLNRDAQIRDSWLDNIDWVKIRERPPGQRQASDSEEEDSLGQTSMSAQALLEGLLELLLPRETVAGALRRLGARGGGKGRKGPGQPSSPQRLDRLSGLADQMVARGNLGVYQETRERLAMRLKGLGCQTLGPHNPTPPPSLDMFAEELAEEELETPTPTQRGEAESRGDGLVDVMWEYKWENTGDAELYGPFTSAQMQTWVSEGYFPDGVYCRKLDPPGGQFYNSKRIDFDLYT
Assay: affinity purification with mass spectrometry; 3xFLAG_TEV_SBP-CD2BP2 as bait from 293-F nuclear extract adjusted to 500 mM KCl; anti-FLAG M2 gel, TEV elution, streptavidin agarose, biotin elution; composition by solution mass spectrometry (Extended Data Table 1), members also seen in the cryo-EM map of the same preparation

binding: binds
B1: PRP6 (protein, UniProt O94906 1-941)
chain: MNKKKKPFLGMPAPLGYVPGLGRGATGFTTRSDIGPARDANDPVDDRHAPPGKRTVGDQMKKNQAADDDDEDLNDTNYDEFNGYAGSLFSSGPYEKDDEEADAIYAALDKRMDERRKERREQREKEEIEKYRMERPKIQQQFSDLKRKLAEVTEEEWLSIPEVGDARNKRQRNPRYEKLTPVPDSFFAKHLQTGENHTSVDPRQTQFGGLNTPYPGGLNTPYPGGMTPGLMTPGTGELDMRKIGQARNTLMDMRLSQVSDSVSGQTVVDPKGYLTDLNSMIPTHGGDINDIKKARLLLKSVRETNPHHPPAWIASARLEEVTGKLQVARNLIMKGTEMCPKSEDVWLEAARLQPGDTAKAVVAQAVRHLPQSVRIYIRAAELETDIRAKKRVLRKALEHVPNSVRLWKAAVELEEPEDARIMLSRAVECCPTSVELWLALARLETYENARKVLNKARENIPTDRHIWITAAKLEEANGNTQMVEKIIDRAITSLRANGVEINREQWIQDAEECDRAGSVATCQAVMRAVIGIGIEEEDRKHTWMEDADSCVAHNALECARAIYAYALQVFPSKKSVWLRAAYFEKNHGTRESLEALLQRAVAHCPKAEVLWLMGAKSKWLAGDVPAARSILALAFQANPNSEEIWLAAVKLESENDEYERARRLLAKARSSAPTARVFMKSVKLEWVQDNIRAAQDLCEEALRHYEDFPKLWMMKGQIEEQKEMMEKAREAYNQGLKKCPHSTPLWLLLSRLEEKIGQLTRARAILEKSRLKNPKNPGLWLESVRLEYRAGLKNIANTLMAKALQECPNSGILWSEAIFLEARPQRRTKSVDALKKCEHDPHVLLAVAKLFWSQRKITKAREWFHRTVKIDSDLGDAWAFFYKFELQHGTEEQQEEVRKRCESAEPRHGELWCAVSKDIANWQKKIGDILRLVAGRIKNTF

Results are given in words; binding and its absence hold for the method and conditions named. In cells and extracts the contact can be indirect. Here binding means that the protein was enriched with, or labelled near, the bait; the list need not be complete. Sequences can lack the tags named with a protein.
